In US10618901B2 (GlaxoSmithKline Intellectual Property Development Limited, priority 2014, dated 2020):
Some entries share one result that the patent states for a list of compounds.

Target: T1, 6HIS-Tev-LRRK2 (1326-2527) (Homo sapiens, UniProt Q5S007)
T1 construct: A LRRK2 cDNA encoding residues 1326-2527 was received from Dundee University; made in house; host or cells: Spodoptera frugiperda Sf9 (baculovirus, pFB-HTb)
T1 sequence (Q5S007 1326-2527): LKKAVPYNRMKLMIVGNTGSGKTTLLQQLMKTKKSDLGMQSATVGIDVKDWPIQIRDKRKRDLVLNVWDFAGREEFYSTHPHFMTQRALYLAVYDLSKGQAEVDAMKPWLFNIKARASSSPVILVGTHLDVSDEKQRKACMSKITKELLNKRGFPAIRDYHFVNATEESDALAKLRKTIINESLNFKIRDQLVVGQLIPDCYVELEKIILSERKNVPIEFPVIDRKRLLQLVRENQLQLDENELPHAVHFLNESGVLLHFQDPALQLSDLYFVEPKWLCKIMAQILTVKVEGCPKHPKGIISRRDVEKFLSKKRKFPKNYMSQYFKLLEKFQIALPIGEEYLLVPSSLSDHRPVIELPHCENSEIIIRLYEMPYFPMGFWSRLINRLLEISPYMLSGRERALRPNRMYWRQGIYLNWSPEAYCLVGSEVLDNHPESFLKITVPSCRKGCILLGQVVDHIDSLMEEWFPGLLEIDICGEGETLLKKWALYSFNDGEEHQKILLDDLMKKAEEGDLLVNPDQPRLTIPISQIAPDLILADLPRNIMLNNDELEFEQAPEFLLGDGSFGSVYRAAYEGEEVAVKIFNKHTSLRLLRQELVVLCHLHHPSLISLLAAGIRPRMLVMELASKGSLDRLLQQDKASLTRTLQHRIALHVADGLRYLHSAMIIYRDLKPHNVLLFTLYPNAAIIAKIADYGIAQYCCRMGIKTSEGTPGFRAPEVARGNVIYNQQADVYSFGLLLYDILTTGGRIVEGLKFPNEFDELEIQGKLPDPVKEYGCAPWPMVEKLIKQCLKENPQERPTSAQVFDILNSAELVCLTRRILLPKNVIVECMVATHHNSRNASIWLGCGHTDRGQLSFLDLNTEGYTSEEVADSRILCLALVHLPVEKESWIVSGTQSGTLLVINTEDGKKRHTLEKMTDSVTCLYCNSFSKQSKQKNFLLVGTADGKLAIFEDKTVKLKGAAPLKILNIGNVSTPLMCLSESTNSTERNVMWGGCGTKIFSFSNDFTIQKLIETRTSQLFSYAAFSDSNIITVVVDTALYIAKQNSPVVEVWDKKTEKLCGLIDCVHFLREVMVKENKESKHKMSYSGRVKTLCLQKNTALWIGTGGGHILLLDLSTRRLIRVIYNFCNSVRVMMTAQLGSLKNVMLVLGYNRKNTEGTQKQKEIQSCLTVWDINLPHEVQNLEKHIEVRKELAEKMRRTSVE
Experiment: LRRK2 Inhibition Mass Spectrometry Assay
Format: biochemical
Conditions: 60 nM LRRK2 enzyme; 20 uM ATP
Description: A LRRK2 cDNA encoding residues 1326-2527 was received from Dundee University (described in M. Jaleel et al., 2007, Biochem J, 405: 407-417). This gene fragment was subcloned into pFB-HTb (Invitrogen) using BamHI and NotI restriction sites. The LRRK2 plasmid was recombined into the baculovirus genome according to the BAC-to-BAC protocol described by Invitrogen. Transfection into Spodoptera frugiperda (Sf9) insect cells was performed using Cellfectin (Invitrogen), according to the manufacturer's protocol to generate P1 and P2 baculovirus stocks.
Sf9 cells were grown in HyClone SFX (Thermo Scientific) growth media at 27° C., 80 rpm in shake flask until of a sufficient volume to inoculate a bioreactor. The cells were grown in a 20 liter working volume Wave bioreactor (GE Healthcare) at 27° C., 50% dissolved oxygen and an agitation rate 22 rocks per minute, 10 degree rock angle, 200 ml/min air with a cell concentration of approximately 6×e6 cells/ml. The cells were infected with P2 Baculovirus at a multiplicity of infection (MOI) of 3. The cultivation was continued for a 48 hour expression phase. The infected cells were removed from the growth media by centrifugation at 2500 g using a Sorvall RC 3C Plus centrifuge at 2500 g for 20 minutes. The cell pellet was immediately frozen and subsequently supplied for purification.
A 260 g pellet was allowed to thaw in a water bath at 27° C. with 800 ml lysis buffer/buffer A (50 mm Tris-HCl pH 8.5, 300 mM NaCl, 1 mm DTT, 10% glycerol, 1 ml/L calbiochem complete protease inhibitor cocktail and benzonase (50 ul/800 ml)) before being dounce homogenised on ice using 20 strokes per 100 ml. The suspension was packed in ice and sonicated at 50% amplitude for 3 min 10 sec on/off using a ¾″ probe. The suspension was then centrifuged at 100,000 g for 90 min, at 4° C.
The lysate (700 ml) was decanted from the insoluble pellet and contacted for 3 h at 4 C with 10 ml His bind Ni NTA resin by end over end mixing. The resin was recovered by centrifugation, 3000 g, 5 min at 4 C, and packed in an XK16 column. The column was then washed with 10 column volumes buffer A, 10 column volumes buffer B (buffer A+1M NaCl) and 10 column volumes buffer C (buffer A+20 mM imidazole). The column was then eluted with 15 column volumes buffer D (buffer A+300 mM imidazole) collecting 2 ml fractions. All washes and elution were conducted at 4 ml/min.
Fractions identified by SDS-PAGE as containing protein of interest were pooled and loaded directly onto a 320 ml SEC Superdex 200 pg column that was pre-equilibrated with buffer E (50 mM Tris-HCl pH 8.5, 300 mM NaCl, 10% glycerol, 1 mM DTT). The column was loaded and eluted with 1.2 column volumes buffer E at 2 ml/min collecting 2 ml fractions. Fractions identified by SDS-PAGE as containing protein of interest were tested for activity.
Production of LRRKtide for LRRK2 Inhibition Mass Spectrometry Assay
The ‘LRRKtide’ peptide H-RLGRDKYKTLRQIRQ-OH was synthesized as follows. The protected peptide was assembled on a solid-phase synthesiser using preloaded Wang resin and utilising standard Fmoc synthesis protocols. The crude peptide was obtained after cleavage from the resin with a mixture of trifluoroacetic acid (TFA), triisopropylsilane and water (95:2.5:2.5) for 3 hours at room temperature and was then purified using a C18 reverse-phase column utilising a 0.1% TFA-buffered water/acetonitrile gradient. The resulting fractions were analysed and fractions which were >95% pure by analytical HPLC and giving the correct molecular weight (mw) (by MALDiTOF mass spectroscopy) were pooled and freeze dried. The final material was analysed by HPLC and MALDiTOF mass spectroscopy.
LRRK2 Inhibition Mass Spectrometry Assay
This assay for Leucine Rich Repeat Kinase 2 (LRRK2) inhibition is based on the direct measurement of the peptide ‘LRRKtide’ (LRRKtide: RLGRDKYKT*LRQIRQ (H-RLGRDKYKTLRQIRQ-OH used for this screen)) and phosphorylated ‘LRRKtide’ using a high throughput RapidFire mass spectrometry assay. […]

| SMILES | pIC50 in the LRRK2 Inhibition Mass Spectrometry Assay |
| --- | --- |
| CCOc1nc(Nc2cnn([C@@H]3CCN(C4COC4)C[C@H]3F)c2C)nc2[nH]ccc12 [Example E98, 4-ethoxy-N-(1-((3R,4R)-3-fluoro-1-(oxetan-3-yl)piperidin-4-yl)-5-methyl-1H-pyrazol-4-yl)-7H-pyrrolo[2,3-d]pyrimidin-2-amine] | ≥ 7.0 |
| CCOc1nc(Nc2cnn(C3CCOCC3F)c2C)nc2[nH]ccc12 (single isomer, unassigned) [Example E127, (cis)-4-ethoxy-N-(1-(3-fluorotetrahydro-2H-pyran-4-yl)-5-methyl-1H-pyrazol-4-yl)-7H-pyrrolo[2,3-d]pyrimidin-2-amine] | ≥ 7.0 |
| CCOc1nc(Nc2cnn(C3CN(C4COC4)CCC3(F)F)c2Cl)nc2[nH]ccc12 (single isomer, unassigned) [Example E124, N-(5-chloro-1-(4,4-difluoro-1-(oxetan-3-yl)piperidin-3-yl)-1H-pyrazol-4-yl)-4-ethoxy-7H-pyrrolo[2,3-d]pyrimidin-2-amine] | ≥ 7.0 |
| CCOc1nc(Nc2cnn(C3CCN(C4COC4)CC3F)c2Cl)nc2[nH]ccc12 (single isomer, unassigned) [Example E106, cis-N-(5-chloro-1-(3-fluoro-1-(oxetan-3-yl)piperidin-4-yl)-1H-pyrazol-4-yl)-4-ethoxy-7H-pyrrolo[2,3-d]pyrimidin-2-amine] | ≥ 7.0 |
| CCOc1nc(Nc2cnn([C@H]3CC[C@@H](O)CC3)c2C)nc2[nH]ccc12 [Example E54, cis-4-(4-((4-ethoxy-7H-pyrrolo[2,3-d]pyrimidin-2-yl)amino)-5-methyl-1H-pyrazol-1-yl)-cyclohexanol] | ≥ 7.0 |
| CCOc1nc(Nc2cnn(C3CN(C)CC3F)c2C)nc2[nH]ccc12 (single isomer, unassigned) [Example E59, 4-ethoxy-N-(1-(4-fluoro-1-methylpyrrolidin-3-yl)-5-methyl-1H-pyrazol-4-yl)-7H-pyrrolo-[2,3-d]pyrimidin-2-amine] | ≥ 7.0 |
| CCOc1nc(Nc2cnn([C@H]3CCCN(C4COC4)C3)c2C)nc2[nH]ccc12 [Example E136, (S)-4-ethoxy-N-(5-methyl-1-(1-(oxetan-3-yl)piperidin-3-yl)-1H-pyrazol-4-yl)-7H-pyrrolo[2,3-d]pyrimidin-2-amine] | ≥ 7.0 |
| CCOc1nc(Nc2cnn(C3CN(C)CCC3(F)F)c2C)nc2[nH]ccc12 (single isomer, unassigned) [Example E121, N-(1-(4,4-difluoro-1-methylpiperidin-3-yl)-5-methyl-1H-pyrazol-4-yl)-4-ethoxy-7H-pyrrolo[2,3-d]pyrimidin-2-amine] | ≥ 7.0 |
| CCOc1nc(Nc2cnn(C3CCN(C4COC4)CC3(C)F)c2C)nc2[nH]ccc12 (single isomer, unassigned) [Example E139, (4-ethoxy-7H-pyrrolo[2,3-d]pyrimidin-2-yl)-[1-(3-fluoro-3-methyl-1-oxetan-3-yl-piperidin-4-yl)-5-methyl-1H-pyrazol-4-yl]-amine] | ≥ 7.0 |
| CCOc1nc(Nc2cnn([C@@H]3CCN(C4COC4)C[C@H]3F)c2Cl)nc2[nH]ccc12 (single isomer, unassigned) [Example E105] | ≥ 7.0 |
| CCOc1nc(Nc2cnn(C(C)(C)CO)c2C)nc2[nH]ccc12 [Example E65, 2-(4-((4-ethoxy-7H-pyrrolo-[2,3-d]pyrimidin-2-yl)amino)-5-methyl-1H-pyrazol-1-yl)-2-methylpropan-1-ol] | ≥ 7.0 |
| CCOc1nc(Nc2cnn(C3CC(N4CCOCC4)C3)c2C)nc2[nH]ccc12 (stereo not drawn) [Example E86, 4-ethoxy-N-(5-methyl-1-(3-morpholinocyclobutyl)-1H-pyrazol-4-yl)-7H-pyrrolo[2,3-d] pyrimidin-2-amine] | ≥ 7.0 |
| CCOc1nc(Nc2cnn(C3CCN(C4COC4)CC3F)c2C)nc2[nH]ccc12 (single isomer, unassigned) [Example E102, cis-4-ethoxy-N-(1-(3-fluoro-1-(oxetan-3-yl)piperidin-4-yl)-5-methyl-1H-pyrazol-4-yl)-7H-pyrrolo[2,3-d]pyrimidin-2-amine] | ≥ 7.0 |
| CCOc1nc(Nc2cnn(C3CCN(C4COC4)CC3(F)F)c2Cl)nc2[nH]ccc12 (single isomer, unassigned) [Example E134, N-(5-chloro-1-(3,3-difluoro-1-(oxetan-3-yl)piperidin-4-yl)-1H-pyrazol-4-yl)-4-ethoxy-7H-pyrrolo[2,3-d]pyrimidin-2-amine] | ≥ 7.0 |
| CCOc1nc(Nc2cnn(C3CCOCC3)c2C)nc2[nH]ccc12 [Example E11, 4-ethoxy-N-(5-methyl-1-(tetrahydro-2H-pyran-4-yl)-1H-pyrazol-4-yl)-7H-pyrrolo-[2,3-d]-pyrimidin-2-amine] | ≥ 7.0 |
